Data from publication PMC7271289, “Anti-Inflammatory and Anticoagulant Activities of Synthesized NSAID Prodrug Esters” (Scientifica, 2020).

How the values were obtained:
[1] = test system: platelet poor citrated plasma; assay: Prothrombin time (PT) test; format: biochemical, human; settings: drug sample 3000 mg/L; for PT: equal volume with plasma, 5 min at 37°C
Method: (§1) PT and aPTT tests were carried out simultaneously. Blood samples from three healthy volunteers were collected in sodium citrated blood tubes (Vacutainer, BD). Blood samples were then centrifuged for 15 min at 1500 rpm to prepare platelet poor citrated plasma. The LABiTec (Germany) apparatus was used for the determination of PT and aPTT. Equal volumes of drug samples (3000 mg/L) and platelet-depleted plasma were incubated for 5 min at 37°C. The PT test was performed as follows: a 100 μl of tissue thromboplastin (HUMAN) was added to 50 μl of prewarmed mixture, and clotting time was measured. For the aPTT test, 50 μl of rabbit brain extract was added to equal volume of the prewarmed platelet poor plasma-extract mixture incubated for 1 minute after which 50 μl of 0.025 M calcium chloride (HUMAN) was added and clotting time was measured; PBS was used as control.

[2] = test system: platelet poor citrated plasma; assay: Activated partial thromboplastin time (aPTT) test; format: biochemical, human; settings: drug sample 3000 mg/L; for aPTT: equal volume with plasma, 5 min at 37°C
Method: as §1

Question: For `COc1ccc2cc([C@H](C)C(=O)O)ccc2c1` [Naproxen], which “PT Average ± SD” value ([1]; average of three volunteers) is on record?
Answer: 22.3 ± 4.36 s

Question: And the PT ([1]; volunteer 1)?
Answer: 20 s

Question: What about the PT ([1]; volunteer 2) of the same molecule?
Answer: 19.5 s

Question: What about the PT ([1]; volunteer 3) of the same molecule?
Answer: 27.3 s

Question: And the “aPTT Average ± SD” value ([2]; average of three volunteers)?
Answer: 66.4 ± 0.9 s

Question: And the aPTT ([2]; volunteer 1)?
Answer: 67.4 s

Question: And the aPTT ([2]; volunteer 2)?
Answer: 66.2 s

Question: What about the aPTT ([2]; volunteer 3) of the same molecule?
Answer: 65.5 s
